Consider 20 compounds from ChEMBL document CHEMBL4513141, “CO-ADD screening of NIH (USA) - Clinical Collection” (2021).

By Inhibition is commonly meant the change of the read-out against control, counted positive when it falls.

Each structure is given as a SMILES string. The list shows a part of the results. Measured potencies and affinities stand elsewhere.

The test deals with Acinetobacter baumannii. Particulars: Concentration 20 uM; ASSAY_TEST Inhibition of Bacterial Growth; detection method Absorption (OD600); MEDIA CAMHB; plate type 384well; NBS; CORNING #3640; time 18 hr.
`CNC1=Nc2ccc(Cl)cc2C(c2ccccc2)=[N+]([O-])C1` [CHLORDIAZEPOXIDE]: the Inhibition was found to be 27.16%. The result for `CC1CCC[C@H](O)CCCCCc2cc(O)cc(O)c2C(=O)O1` (stereo not given in full) reads 9.95%; that for `COc1ccc2[nH]cc(C3=CCNCC3)c2c1.COc1ccc2[nH]cc(C3=CCNCC3)c2c1.O=C(O)CCC(=O)O`, 33.42%; that for `Nc1nc(F)nc2c1ncn2[C@@H]1O[C@H](CO)[C@@H](O)[C@@H]1O` [FLUDARABINE], 3.25%.

With `C=C(C)CN1CC[C@]23c4c5ccc(O)c4O[C@H]2c2[nH]c4ccccc4c2C[C@@]3(O)C1C5.Cl.O`, the Inhibition is on record as 13.71%. Under `COC(=O)N1CCN(C(=O)Cc2ccc(Cl)c(Cl)c2)C(CN2CCCC2)C1.O=C(O)/C=C/C(=O)O` (stereo not given) stands 10.06%. As for `CC[C@@H]1/C=C/C=C/C[C@H](C)[C@@H](O)[C@](C)(O)C(=O)[C@H](C)[C@@H](O)[C@H](C)C(=O)[C@H](C)[C@@H](O)[C@H](C)/C=C/C(=O)O[C@H]2[C@@H](C)[C@@H](CC1)O[C@@]1(CC[C@@H](C)[C@@H](C[C@H](C)O)O1)[C@@H]2C`, the Inhibition is on record as 27.64%.

For the compound `CS(=O)(=O)Nc1ccc(Cc2noc(-c3ccc4[nH]cc(CCN)c4c3)n2)cc1.O.O`, the Inhibition amounted to 28.37%. The result for `NCCc1ccccn1` reads 8.39%. As to `c1cncc([C@@H]2CCCN2)c1` [NORNICOTINE], the Inhibition is given as 21.79%. With `Nc1nc2ccc(Cl)cc2c2nc(-c3ccco3)nn12` [CGS-15943], the Inhibition is on record as 17.29%.

In the case of `C[C@]12Cc3c[nH]nc3C[C@@H]1CC[C@@H]1[C@@H]2CC[C@@]2(C)[C@H]1CC[C@]2(C)O` [STANOZOLOL], the Inhibition is listed as 6.15%. Under `CC(C)[C@]12O[C@H]1[C@@H]1O[C@]13[C@]1(O[C@H]1C[C@H]1C4=C(CC[C@@]13C)C(=O)OC4)[C@@H]2O` [TRIPTOLIDE] stands 17.86%; under `C[C@]12CCC(=O)C=C1CC[C@@H]1[C@@H]2CC[C@@]2(C)[C@H]1CC[C@]2(C)O` [METHYLTESTOSTERONE], 30.83%. The result for `C#C[C@]1(OC(C)=O)CC[C@H]2[C@@H]3CCC4=CC(=O)CC[C@@H]4[C@H]3CC[C@@]21C` [NORETHINDRONE ACETATE] reads 20.02%.

`Cc1c(O)c(=O)ccn1C` [DEFERIPRONE]: the Inhibition is given as 25.07%. The result for `Fc1ccc([C@@H]2CCNC[C@H]2COc2ccc3c(c2)OCO3)cc1.O=C(O)/C=C\C(=O)O` reads -2.08%; that for `CCC1(c2ccc(N)cc2)CCC(=O)NC1=O` (stereo not given) [AMINOGLUTETHIMIDE], 5.09%; that for `C[C@]12CCC(=O)C[C@@H]1CC[C@@H]1[C@@H]2CC[C@@]2(C)[C@H]1CC[C@]2(C)O` [MESTANOLONE], 9.3%. Take `Cl.O.Oc1cc2c(cc1O)[C@H]1c3ccccc3CN[C@@H]1CC2`: the Inhibition was 9.31%.
